Laboratory results as given in patent US10894412B2, “Ink jet recording apparatus” (Seiko Epson Corporation, priority 2018, dated 2021).
Some results were stated once for a whole list of compounds, not compound by compound. For at least one compound, name, drawing or mass did not settle the structure.

Assay: Octanol/water distribution coefficient (log P value, OECD Test Guideline 107)
Assay type: physicochemical
Excerpt: The octanol/water distribution coefficient is a value referred to as a log P value and refers to a value defined in OECD Test Guideline 107. As the log P value is larger, the hydrophobicity is higher. As the log P value is smaller, the hydrophilicity is higher.

Compound | octanol/water distribution coefficient
NC(N)=O [urea] | ≤ 0.0
NC(N)=S [Thiourea] | ≤ 0.0
